These are yes or no findings as the source states them, for the method shown. Binding seen in cells or lysates may run through a third protein. Some results given as binding are weak or reduced against the parent protein; the word gives no strength.
Target: FLAG–Rab40c wild-type (WT) in 293T cells (human) (UniProt Q96S21)
Assay: co-IP; 293T cells transfected with a FLAG-tagged Rab40 protein (in Fig. 3C alone or with HA–AMBRA1 or HA–AMBRA1-ΔN), anti-FLAG precipitation, blotted for the endogenous partner (AMBRA1 or cullin-5); lysis in 20 mM Tris-HCl pH 7.4, 150 mM NaCl, 2 mM EDTA, 1% Triton X-100, 10% glycerol; washes with lysis buffer plus 0.5 M NaCl

By UniProt entry, the sequences of proteins in these tests, tags left out.
UniProt Q96S21: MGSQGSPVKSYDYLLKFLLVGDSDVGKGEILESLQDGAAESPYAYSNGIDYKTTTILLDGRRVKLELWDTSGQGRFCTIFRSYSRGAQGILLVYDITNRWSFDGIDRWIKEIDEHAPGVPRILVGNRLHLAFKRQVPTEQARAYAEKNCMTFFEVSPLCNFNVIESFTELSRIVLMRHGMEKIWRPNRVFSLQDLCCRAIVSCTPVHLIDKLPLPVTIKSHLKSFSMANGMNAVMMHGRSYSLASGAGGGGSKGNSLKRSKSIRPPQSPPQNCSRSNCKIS
UniProt Q93034: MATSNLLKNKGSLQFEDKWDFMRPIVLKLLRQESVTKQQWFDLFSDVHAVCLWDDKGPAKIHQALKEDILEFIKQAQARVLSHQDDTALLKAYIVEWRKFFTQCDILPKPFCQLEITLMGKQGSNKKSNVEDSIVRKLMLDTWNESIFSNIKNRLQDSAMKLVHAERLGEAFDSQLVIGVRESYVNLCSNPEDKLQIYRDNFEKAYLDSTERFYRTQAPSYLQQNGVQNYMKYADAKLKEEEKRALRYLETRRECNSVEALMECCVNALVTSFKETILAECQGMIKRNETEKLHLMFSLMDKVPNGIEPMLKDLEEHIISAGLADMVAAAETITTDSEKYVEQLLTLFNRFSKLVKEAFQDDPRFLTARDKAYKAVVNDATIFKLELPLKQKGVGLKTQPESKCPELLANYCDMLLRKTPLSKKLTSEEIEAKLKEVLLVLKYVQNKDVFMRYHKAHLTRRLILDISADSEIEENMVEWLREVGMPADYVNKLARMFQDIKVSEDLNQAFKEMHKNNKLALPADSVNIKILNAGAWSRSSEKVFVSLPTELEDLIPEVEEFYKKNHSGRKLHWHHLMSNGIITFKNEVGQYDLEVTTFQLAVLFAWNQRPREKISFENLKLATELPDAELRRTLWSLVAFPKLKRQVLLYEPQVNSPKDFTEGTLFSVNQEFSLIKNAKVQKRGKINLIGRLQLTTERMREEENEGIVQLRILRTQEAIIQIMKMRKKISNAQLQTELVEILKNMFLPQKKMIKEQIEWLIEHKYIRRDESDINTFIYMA

Substance: cullin-5, endogenous in 293T cells (from UniProt Q93034 1-780)
- binding: binds

— PMC12045048
